This passage reports binding results from PMC3994028.

Positions count from the first letter of the chain named. Results are given in words; binding and its absence hold for the method and conditions named. Binding seen in cells or lysates may run through a third protein. Some entries that bind do so weakly or less than the wild type. For some of these results: Tags and fused reporters may be left off the sequences shown.

In assay [1] the target is non-muscle myosin IIB (NM IIB) (rat (endogenous in hippocampal neurons of Sprague-Dawley rats and in PC12)) (UniProt Q9JLT0). The assay can be described thus: co-IP; lysates of PC12 cells transfected with GFP-Cdc42V12 (constitutively active) for 24 h; immunoprecipitated with anti-NM IIB antibody, immunoblotted for βPIX, kalirin, ITSN.
The target is the same in assay [2]. The assay can be described thus: proximity ligation; Duolink in situ PLA on fixed, permeabilised cultured hippocampal neurons (growth cones); primary antibodies against βPIX (or kalirin) and NM IIB, or βPIX and GIT; with or without 50 µM BBS for 15 or 30 min.
Assay [3] has the same target. The assay can be described thus: co-IP; PC12 lysates immunoprecipitated with anti-NM IIB antibody, immunoblotted for βPIX, kalirin, ITSN; cells treated with 50 µM BBS for the indicated times, transfected with GFP or GFP-RhoAV14, or stimulated with 100 ng/ml NGF (with GFP-Cdc42 WT or N17, GFP-Rac1, Myc-PAK1 WT or DN). In general terms: In western blotting, separated proteins are transferred to a membrane and probed.

For assay [4], the target named is T1, βPIX (endogenous, PC12 cells) (rat (endogenous in PC12)) (UniProt O55043).
T1 sequence: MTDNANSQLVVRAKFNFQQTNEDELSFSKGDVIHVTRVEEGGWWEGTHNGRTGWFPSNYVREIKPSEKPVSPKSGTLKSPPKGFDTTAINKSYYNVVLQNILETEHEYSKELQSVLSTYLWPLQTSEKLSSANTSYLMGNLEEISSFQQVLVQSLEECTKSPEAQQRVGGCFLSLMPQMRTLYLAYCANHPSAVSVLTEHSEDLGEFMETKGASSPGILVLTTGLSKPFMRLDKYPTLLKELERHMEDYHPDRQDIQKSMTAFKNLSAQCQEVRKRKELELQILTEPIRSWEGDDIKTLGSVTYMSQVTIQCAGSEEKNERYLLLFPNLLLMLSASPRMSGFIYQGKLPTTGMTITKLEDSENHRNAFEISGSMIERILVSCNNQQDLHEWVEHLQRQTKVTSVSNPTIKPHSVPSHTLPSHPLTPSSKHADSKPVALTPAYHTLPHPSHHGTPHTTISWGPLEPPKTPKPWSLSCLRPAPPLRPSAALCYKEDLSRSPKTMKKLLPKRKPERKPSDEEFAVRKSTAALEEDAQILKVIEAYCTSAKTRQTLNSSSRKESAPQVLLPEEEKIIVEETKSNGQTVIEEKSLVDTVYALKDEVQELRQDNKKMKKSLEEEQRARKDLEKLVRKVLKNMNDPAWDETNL
The assay can be described thus: co-IP; PC12 lysates immunoprecipitated with anti-βPIX monoclonal antibody, immunoblotted for NM IIB; cells transfected with GFP (control), GFP-βPIX DH^wt or GFP-βPIX DH^mt as competitor; also cells stimulated with 100 ng/ml NGF.

In assay [5] the target is non-muscle myosin IIB (NM IIB) (rat (endogenous in hippocampal neurons of Sprague-Dawley rats and in PC12)) (UniProt Q9JLT0). Described as above.
Assay [6] shares this target. The assay can be described thus: co-IP; PC12 lysates immunoprecipitated with anti-Tiam1 antibody, immunoblotted for NM IIB; cells transfected with GFP (control), GFP-Tiam1 DH^wt or GFP-Tiam1 DH^mt as competitor.
Assay [7] has the same target. The assay can be described thus: co-IP; PC12 lysates immunoprecipitated with anti-NM IIB antibody, immunoblotted for βPIX, kalirin, ITSN; cells treated with 50 µM BBS for the indicated times, transfected with GFP or GFP-RhoAV14, or stimulated with 100 ng/ml NGF (with GFP-Cdc42 WT or N17, GFP-Rac1, Myc-PAK1 WT or DN). This is another data set of the same source.

For the molecule kalirin (from UniProt P97924 1-2959), the binding entry in assay [1] was “binds weakly”; in assay [2], “binds”; in assay [3], “binds”.
As to “non-muscle myosin IIB (NM IIB) (from UniProt Q9JLT0 1-1976)”, the binding result in assay [4] is reported as “binds”.

B1: GFP-βPIX DH^wt (domain or fragment, UniProt O55043 100-276)
chain: NILETEHEYSKELQSVLSTYLWPLQTSEKLSSANTSYLMGNLEEISSFQQVLVQSLEECTKSPEAQQRVGGCFLSLMPQMRTLYLAYCANHPSAVSVLTEHSEDLGEFMETKGASSPGILVLTTGLSKPFMRLDKYPTLLKELERHMEDYHPDRQDIQKSMTAFKNLSAQCQEVRKR
On to B1, for which, in assay [5], the binding entry is “binds”.

B2: GFP-βPIX DH^mt (domain or fragment, UniProt O55043 100-276)
chain: B1 chain with L139R, L140R
In the case of B2, the binding result in assay [5] is reported as “binds”.

B3: GFP-Tiam1 DH^wt (domain or fragment, UniProt Q60610 1048-1239)
chain: LLETERTYVKDLNCLMERYLKPLQKETFLTQDELDVLFGNLTEMVEFQVEFLKTLEDGVRLVPDLEKLEKVDQFKKVLFSLGGSFLYYADRFKLYSAFCASHTKVPKVLVKAKTDTAFKAFLDAQNPRQQHSSTLESYLIKPIQRVLKYPLLLRELFALTDAESEEHYHLDVAIKTMNKVASHINEMQKIHE
For the molecule B3, in assay [6], the binding result is reported as “binds”.

B4: GFP-Tiam1 DH^mt (domain or fragment, UniProt Q60610 1048-1239)
chain: B3 chain with L1R, L2S
As for B4, in assay [6], the binding entry is “binds”.

B5: βPIX (endogenous, PC12 cells) (protein, UniProt O55043 1-646)
chain: T1 sequence
As for B5, the binding entry in assay [1] is “binds weakly”; in assay [7], “binds”.
